Record: PubChem BioAssay AID1259254 (NCATS, 2017)

Test: 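Finding genes that stop cells copying their DNA twice in one cycle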 (primary screen)
Cell system: human HCT116 colorectal cancer cells
Reagent: single siRNA against human genes
Duration: 3 days
Measured: 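Nuclei stained with Hoechst and imaged; cell-cycle phase assigned by DNA content; G2 share scaled per plate, non-targeting siRNA 0%, GMNN siRNA 100%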
Direction: G2 robust z-score and G2 cells, % of GMNN control: higher = more G2 cells, more excess DNA replication
Rule for the call: 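An siRNA counts as active if its G2 robust z-score lies at least 5 MADs above the screen median; here such calls match roughly 38% of GMNN control or more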
This is one part, drawn at random, of about 59,000 reagents. Of all reagents, about 1,550 (2.6%) were called active. 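G2 share is only a proxy for re-replication; each gene was hit by three separate siRNAs, and active genes were retested.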 Not all columns of the deposit are shown. Not stated in the record: the amount of reagent.

gene,PubChem SID,G2 robust z-score,"G2 cells, % of GMNN control",Outcome
OR1A2 (olfactory receptor family 1 subfamily A member 2),SID160737750,0.37,5.57,inactive
OR1A2 (olfactory receptor family 1 subfamily A member 2),SID160737751,-0.757,-2.36,inactive
OR1A2 (olfactory receptor family 1 subfamily A member 2),SID160737752,0.141,3.96,inactive
RIPK4 (receptor interacting serine/threonine kinase 4),SID160741565,1.05,10.3,inactive
RIPK4 (receptor interacting serine/threonine kinase 4),SID160741566,5.42,41.1,active
RIPK4 (receptor interacting serine/threonine kinase 4),SID160741567,-0.0036,2.94,inactive
FUT6 (fucosyltransferase 6),SID160723771,-0.296,0.884,inactive
FUT6 (fucosyltransferase 6),SID160767850,1.91,16.4,inactive
FUT6 (fucosyltransferase 6),SID160767859,-1.21,-5.55,inactive
DCK (deoxycytidine kinase),SID160722753,-0.181,1.69,inactive
DCK (deoxycytidine kinase),SID160722859,-1.32,-6.31,inactive
DCK (deoxycytidine kinase),SID160722967,0.689,7.81,inactive
FST (follistatin),SID160728498,-0.417,0.0328,inactive
FST (follistatin),SID160728499,0.836,8.85,inactive
FST (follistatin),SID160728500,-0.716,-2.07,inactive
FOXL3-OT1 (FOXL3 overlapping transcript 1),SID160770674,-1.05,-4.4,inactive
FOXL3-OT1 (FOXL3 overlapping transcript 1),SID160770675,1.05,10.4,inactive
FOXL3-OT1 (FOXL3 overlapping transcript 1),SID160770676,1.39,12.8,inactive
SLC38A10,SID160756198,-0.24,1.28,inactive
SLC38A10,SID160756199,3.46,27.3,inactive
SLC38A10,SID160756201,1.42,13,inactive
NAP1L2 (nucleosome assembly protein 1 like 2),SID160777774,0.835,8.84,inactive
NAP1L2 (nucleosome assembly protein 1 like 2),SID160777775,0.416,5.89,inactive
NAP1L2 (nucleosome assembly protein 1 like 2),SID160777777,1.44,13.1,inactive
ARFRP1 (ARF related protein 1),SID160725928,-0.493,-0.503,inactive
ARFRP1 (ARF related protein 1),SID160725936,-0.0583,2.56,inactive
ARFRP1 (ARF related protein 1),SID160725938,0.307,5.13,inactive
SLC36A3,SID160763673,1.05,10.4,inactive
SLC36A3,SID160763675,0.969,9.78,inactive
SLC36A3,SID160763676,0.765,8.35,inactive
"SUPT5H (SPT5 homolog, DSIF elongation factor subunit)",SID160717542,2.2,18.5,inactive
"SUPT5H (SPT5 homolog, DSIF elongation factor subunit)",SID160717543,8.27,61.2,active
"SUPT5H (SPT5 homolog, DSIF elongation factor subunit)",SID160717544,0.0583,3.38,inactive

An excerpt of the results above, for reference:
gene,PubChem SID,G2 robust z-score,"G2 cells, % of GMNN control",Outcome
OR1A2 (olfactory receptor family 1 subfamily A member 2),SID160737752,0.141,3.96,inactive
RIPK4 (receptor interacting serine/threonine kinase 4),SID160741565,1.05,10.3,inactive
RIPK4 (receptor interacting serine/threonine kinase 4),SID160741566,5.42,41.1,active

The list goes on.
gene,PubChem SID,G2 robust z-score,"G2 cells, % of GMNN control",Outcome
CLK1 (CDC like kinase 1),SID160744479,4.03,31.3,inactive
CLK1 (CDC like kinase 1),SID160744490,-0.0214,2.82,inactive
CLK1 (CDC like kinase 1),SID160744501,0.945,9.62,inactive
C10orf143 (chromosome 10 open reading frame 143),SID160765650,1.05,10.4,inactive
C10orf143 (chromosome 10 open reading frame 143),SID160765651,0.0753,3.5,inactive
C10orf143 (chromosome 10 open reading frame 143),SID160765652,-0.662,-1.69,inactive
XRCC6 (X-ray repair cross complementing 6),SID160768192,2.29,19.1,inactive
XRCC6 (X-ray repair cross complementing 6),SID160768202,1.39,12.7,inactive
XRCC6 (X-ray repair cross complementing 6),SID160768205,-0.593,-1.2,inactive
ARID5B (AT-rich interaction domain 5B),SID160751804,1.24,11.7,inactive
ARID5B (AT-rich interaction domain 5B),SID160751806,-0.0776,2.42,inactive
ARID5B (AT-rich interaction domain 5B),SID160751807,0.0632,3.41,inactive
DMAC2 (distal membrane arm assembly component 2),SID160742937,-0.521,-0.696,inactive
DMAC2 (distal membrane arm assembly component 2),SID160742938,2.25,18.8,inactive
DMAC2 (distal membrane arm assembly component 2),SID160742940,1.62,14.4,inactive
MSLNL (mesothelin like),SID160767370,-0.0172,2.85,inactive
MSLNL (mesothelin like),SID160767371,0.905,9.33,inactive
MSLNL (mesothelin like),SID160767372,-1.09,-4.73,inactive
ITGA7 (integrin subunit alpha 7),SID160775971,-0.502,-0.566,inactive
ITGA7 (integrin subunit alpha 7),SID160775972,-1.09,-4.73,inactive
ITGA7 (integrin subunit alpha 7),SID160775973,4.05,31.5,inactive
C6orf58 (chromosome 6 open reading frame 58),SID160765134,1.86,16.1,inactive
C6orf58 (chromosome 6 open reading frame 58),SID160765135,-0.166,1.8,inactive
C6orf58 (chromosome 6 open reading frame 58),SID160765136,-0.61,-1.33,inactive
DLX6 (distal-less homeobox 6),SID160730712,-0.764,-2.41,inactive
DLX6 (distal-less homeobox 6),SID160754857,4.64,35.6,inactive
DLX6 (distal-less homeobox 6),SID160754868,0.838,8.86,inactive
NR2F2-AS1 (NR2F2 antisense RNA 1),SID160725716,-0.942,-3.66,inactive
NR2F2-AS1 (NR2F2 antisense RNA 1),SID160769143,-0.467,-0.317,inactive
NR2F2-AS1 (NR2F2 antisense RNA 1),SID160769146,-0.0386,2.7,inactive
ZNF527 (zinc finger protein 527),SID160752326,0.384,5.67,inactive
ZNF527 (zinc finger protein 527),SID160752327,-0.851,-3.02,inactive
ZNF527 (zinc finger protein 527),SID160752328,-0.486,-0.451,inactive
WNT4 (Wnt family member 4),SID160741642,1.61,14.3,inactive
WNT4 (Wnt family member 4),SID160741643,0.425,5.96,inactive
WNT4 (Wnt family member 4),SID160741644,-0.558,-0.961,inactive
